# Results are given in words; binding and its absence hold for the method and conditions named. In cells and extracts the contact can be indirect. Binding can be weak; no strength is given. Sequences can lack the tags named with a protein.
# Biological target: S127A-FLAG (UniProt P46937)
# Test: co-IP; HCT116 co-transfected with DUSP10-V5 and a YAP-FLAG plasmid. Cells were cross-linked with 2 mM DSP for 30 min, then lysed in RIPA buffer. Anti-FLAG (or normal IgG) and protein A/G agarose at 4 °C, then immunoblot.
binder,measurement,value
"DUSP10-WT-V5 (enzyme, UniProt Q9Y6W6 1-482) MPPSPLDDRVVVALSRPVRPQDLNLCLDSSYLGSANPGSNSHPPVIATTVVSLKAANLTYMPSSSGSARSLNCGCSSASCCTVATYDKDNQAQTQAIAAGTTTTAIGTSTTCPANQMVNNNENTGSLSPSSGVGSPVSGTPKQLASIKIIYPNDLAKKMTKCSKSHLPSQGPVIIDCRPFMEYNKSHIQGAVHINCADKISRRRLQQGKITVLDLISCREGKDSFKRIFSKEIIVYDENTNEPSRVMPSQPLHIVLESLKREGKEPLVLKGGLSSFKQNHENLCDNSLQLQECREVGGGASAASSLLPQPIPTTPDIENAELTPILPFLFLGNEQDAQDLDTMQRLNIGYVINVTTHLPLYHYEKGLFNYKRLPATDSNKQNLRQYFEEAFEFIEEAHQCGKGLLIHCQAGVSRSATIVIAYLMKHTRMTMTDAYKFVKGKRPIISPNLNFMGQLLEFEEDLNNGVTPRILTPKLMGVETVV",binding,binds

# Reference: publication PMC6896144
